From the supplement of paper PMC5770031 come the findings set out here.

The other results are listed elsewhere or left out. Single values are uncertain here, since repeats match poorly.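 Flies heterozygous for the ATM8 allele over a balancer chromosome carrying normal ATM were mated with each other on treated food. Parents laid eggs for 5–6 days and the young then developed for about 12 days, so both parents and larvae ate the compound. The read-out is the share of all emerged adults that carry two ATM8 copies, compared with 2% DMSO control vials. The paper called compounds neutral at 10–20% such offspring, harmful below 10%, and helpful above 20%.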

This experiment concerns Drosophila melanogaster ATM8 (temperature-sensitive ATM allele). The experiment can be described thus: fraction of eclosed F1 progeny that are homozygous ATM8 (rescue of developmental lethality); higher = more rescue of ATM8 developmental lethality; extreme values may be limits of the assay. The conditions noted are these: compound concentration applied to food 0.2 mM; 21 °C.
For the molecule `O=C(O)c1ccccc1O`, the “fraction of eclosed F1 progeny that are homozygous ATM8” value (“fraction” below) stood at 0.0833.

Turning to `CC(=O)Oc1cc(-c2coc3cc(OC(C)=O)c(OC(C)=O)c(OC(C)=O)c3c2=O)cc(OC(C)=O)c1OC(C)=O`, the “fraction” value came to 0.117.

In the case of `CC1/C=C/C=C/C=C/C=C/C=C/C=C/C=C/C(OC2O[C@H](C)[C@@H](O)[C@H](N)[C@@H]2O)CC(O)C(C(=O)O)C(O)CC(=O)CC(O)CC(O)CC(O)CC(=O)CCCC(=O)CC(=O)OC1C(C)CC(C)C(O)CC(=O)c1ccc(N)cc1` (some centres not stated), the “fraction” value is 0.293.

For `O=c1oc2cc(O)ccc2s1`, the “fraction” value is 0.0769.

Take `O=C1c2ccccc2C(=O)C1c1ccc(Br)cc1`: the “fraction” value turned out to be 0.0417.

With `COc1cc(OC)c2c(c1)O[C@H](c1ccc(OC)c(OC)c1)[C@@H](O)C2`, the “fraction” value came out at 0.0353.

Take `CC=CC1=C(C(=O)O)N2C(=O)[C@@H](NC(=O)[C@H](N)c3ccc(O)cc3)[C@H]2SC1`: the “fraction” value was 0.203.

Turning to `C=CC[C@]1(O)CC[C@H]2[C@@H]3CCC4=CC(=O)CCC4=C3C=C[C@@]21C`, the “fraction” value came to 0.08.

Take `CCOC(=S)SSC(=S)OCC`: the “fraction” value was 0.145.

With `CC1(C)C(O[C@@H]2OC[C@@H](O)[C@H](O)[C@H]2O)CC[C@]23CC24CC[C@]2(C)[C@@H]([C@@]5(C)CC[C@@H](C(C)(C)O)O5)[C@H](O)C[C@@]2(C)C4C[C@@H](O[C@@H]2O[C@H](CO)[C@@H](O)[C@H](O)[C@H]2O)C13` (some centres not stated), the “fraction” value is 0.182.

For `Cc1cc2c(s1)Nc1ccccc1N=C2N1CCN(C)CC1`, the “fraction” value is 0.

As for `CC(C)OC(=O)C(C)(C)Oc1ccc(C(=O)c2ccc(Cl)cc2)cc1`, the “fraction” value was found to be 0.0667.

On to `OC[C@@H]1CCCN2CCCC[C@H]12`, for which the “fraction” value turned out to be 0.128.

Regarding `C[C@H]1[C@H](C)CC[C@]2(C(=O)O[C@@H]3O[C@H](CO[C@@H]4O[C@H](CO)[C@@H](O[C@@H]5O[C@H](C)[C@H](O)[C@@H](O)[C@H]5O)[C@H](O)[C@H]4O)[C@@H](O)[C@H](O)[C@H]3O)CC[C@]3(C)C(=CC[C@@H]4[C@@]5(C)C[C@@H](O)[C@H](O)[C@@](C)(CO)[C@@H]5CC[C@]43C)[C@H]12`, the “fraction” value turned out to be 0.1.

On to `C1CCc2nnnn2CC1`, for which the “fraction” value was found to be 0.197.

On to `N#CCC(=O)NN`, for which the “fraction” value turned out to be 0.125.

For `CN1CCCN=C1/C=C/c1cccc(O)c1`, the “fraction” value was 0.163.

On to `CC(N)CCCC(C)(C)O` (configuration not stated), for which the “fraction” value is 0.116.

Consider `Cc1cc(O)cc(C)c1Cl`, for which the “fraction” value was 0.05.

Take `CC(=O)N(c1onc(C)c1C)S(=O)(=O)c1ccc(N)cc1`: the “fraction” value came to 0.0263.

With `CC(Cc1ccc(O)cc1)NCC(O)c1cc(O)cc(O)c1` (configuration not stated), the “fraction” value was found to be 0.125.

Regarding `Oc1cccc(O)c1`, the “fraction” value was 0.158.

As to `C=C[C@H]1CN2CC[C@H]1C[C@@H]2[C@@H](O)c1ccnc2ccccc12`, the “fraction” value was found to be 0.

On to `C=C1CCC(C2CC(=O)OC2=O)C(=O)CCC2C1CC2(C)C` (configuration not stated), for which the “fraction” value came out at 0.214.

In the case of `C=CCN=C=S`, the “fraction” value was 0.107.

Consider `Nc1c2ccccc2nc2ccccc12`, for which the “fraction” value was determined as 0.118.

Take `CN1CCC(=C2c3ccccc3Sc3ccccc32)CC1`: the “fraction” value was 0.145.

Consider `CC(Cl)(Cl)C(=O)O`, for which the “fraction” value was determined as 0.0571.

`CC(C)CC(N(C)C)C1(c2ccc(Cl)cc2)CCC1` (configuration not stated): the “fraction” value amounted to 0.257.

As for `N[C@@H](Cc1cc(I)c(Oc2ccc(O)c(I)c2)c(I)c1)C(=O)O`, the “fraction” value came to 0.111.

For `N[C@@H](Cc1cc(I)c(Oc2ccc(O)c(I)c2)c(I)c1)C(=O)O` [LIOTHYRONINE (L- isomer) SODIUM], the “fraction” value is 0.231.

As to `NC[C@@H]1O[C@@H](O[C@H]2[C@H](O)[C@@H](O[C@H]3O[C@H](CO)[C@@H](O)[C@H](N)[C@H]3O)[C@H](N)C[C@@H]2N)[C@@H](O)[C@H](O)[C@H]1O`, the “fraction” value worked out at 0.

Regarding `CC1CC(OC(=O)c2ccccc2O)CC(C)(C)C1` (configuration not stated), the “fraction” value turned out to be 0.105.

Regarding `C[C@H](CCC(=O)O)[C@H]1CC[C@H]2[C@@H]3[C@@H](O)C[C@@H]4C[C@H](O)CC[C@]4(C)[C@H]3CC[C@]12C`, the “fraction” value stood at 0.0952.

As for `COC(=O)c1cc(OC)c(=O)c2c(OC)c(OC)ccc2c1`, the “fraction” value is 0.154.

Consider `C[C@]12CC[C@@H]3c4ccc(OC(=O)c5ccccc5)cc4CC[C@H]3[C@@H]1CC[C@@H]2O`, for which the “fraction” value was 0.235.

Regarding `O=C([O-])c1ccccc1-c1c2cc(Br)c(=O)cc-2oc2[c]([Hg+])c([O-])c(Br)cc12.[Na+].[Na+].[OH-]`, the “fraction” value amounted to 0.176.

`CN1CCN(C(c2ccccc2)c2ccccc2)CC1`: the “fraction” value came out at 0.0312.

As for `COC(=O)C1=CO[C@@H](C)[C@H]2CN3CC[C@]4(C(=O)Nc5ccccc54)[C@@H]3C[C@H]12`, the “fraction” value was determined as 0.0968.

In the case of `N#C/C(=C\c1cccc(O)c1)C(=O)O` [alpha-CYANO-3-HYDROXYCINNAMIC ACID], the “fraction” value was determined as 0.1.

In the case of `OCCN(CCO)c1nc(N2CCCCC2)c2nc(N(CCO)CCO)nc(N3CCCCC3)c2n1`, the “fraction” value came to 0.146.

Regarding `CC(=O)O[C@@H]1C[C@@]2(C)[C@H](c3ccoc3)C[C@H]3O[C@]32[C@]2(C)C(=O)C(O)=C3C(C)(C)C(=O)C=C[C@]3(C)[C@@H]12`, the “fraction” value is 0.117.

For the molecule `O=C(O)c1ccccc1C(=O)Nc1ccc(S(=O)(=O)Nc2nccs2)cc1`, the “fraction” value was found to be 0.143.

In the case of `C[N+](C)(C)CC(=O)O`, the “fraction” value is 0.093.

Take `C#C[C@]1(O)CC[C@H]2[C@@H]3CCC4=CC(=O)CC[C@]4(C)[C@H]3CC[C@@]21C`: the “fraction” value amounted to 0.0588.

Take `CC(C)[N+](C)(CCC(C(N)=O)(c1ccccc1)c1ccccc1)C(C)C`: the “fraction” value is 0.143.

As for `COc1ccc(C(=O)c2ccccc2)c(O)c1O`, the “fraction” value was found to be 0.0926.

On to `Cc1c(-c2cnccn2)ssc1=S`, for which the “fraction” value stood at 0.125.

As to `C(=C\c1ccccc1)/CN1CCN(C(c2ccccc2)c2ccccc2)CC1`, the “fraction” value was determined as 0.036.

Turning to `CCN(CC)CCNC(C(=O)OCCC(C)C)c1ccccc1` (configuration not stated), the “fraction” value came to 0.208.

For the molecule `C[C@@H]1C[C@H]2[C@@H]3CCC4=CC(=O)C=C[C@]4(C)[C@@]3(F)[C@@H](O)C[C@]2(C)[C@@]1(O)C(=O)COP(=O)(O)O`, the “fraction” value is 0.0233.

Turning to `C=CC1=C(C(=O)O)N2C(=O)[C@@H](NC(=O)/C(=N\O)c3csc(N)n3)[C@H]2SC1`, the “fraction” value amounted to 0.241.

In the case of `C=C1CC[C@@H]2[C@](C)(CO)[C@H](O)CC[C@@]2(C)[C@@H]1C/C=C1/C(=O)OC[C@H]1O`, the “fraction” value was 0.171.

For the molecule `Cc1cn([C@H]2C=C[C@@H](CO)O2)c(=O)[nH]c1=O`, the “fraction” value worked out at 0.0526.

As for `Oc1ccc([C@H]2Oc3cc(O)cc(O)c3C[C@H]2O)cc1`, the “fraction” value came to 0.196.

`O=C(O[C@@H]1Cc2c(O)cc(O)cc2O[C@@H]1c1cc(O)c(=O)c2c(O)c(O)cc([C@H]3Oc4cc(O)cc(O)c4C[C@H]3OC(=O)c3cc(O)c(O)c(O)c3)c2c1)c1cc(O)c(O)c(O)c1`: the “fraction” value came to 0.0857.

Consider `COc1cccc2c1C(=O)c1c(O)c3c(c(O)c1C2=O)C[C@@](O)(C(C)=O)C[C@@H]3O[C@H]1C[C@H](N)[C@H](O)[C@H](C)O1`, for which the “fraction” value worked out at 0.0769.
